Measured values taken from the supplement of paper PMC10849652.
This is one part of the list.

By UniProt entry, the sequences of proteins in these tests, tags left out. Where a name states a change or a piece, a line headed by the entry shows the natural chain unless it says otherwise.
UniProt P56277: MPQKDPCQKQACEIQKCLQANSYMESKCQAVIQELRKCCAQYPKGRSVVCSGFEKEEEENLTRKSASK
UniProt P33552, whole entry, looked up: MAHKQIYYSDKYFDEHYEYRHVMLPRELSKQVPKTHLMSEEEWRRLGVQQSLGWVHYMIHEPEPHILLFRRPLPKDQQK
UniProt O75503: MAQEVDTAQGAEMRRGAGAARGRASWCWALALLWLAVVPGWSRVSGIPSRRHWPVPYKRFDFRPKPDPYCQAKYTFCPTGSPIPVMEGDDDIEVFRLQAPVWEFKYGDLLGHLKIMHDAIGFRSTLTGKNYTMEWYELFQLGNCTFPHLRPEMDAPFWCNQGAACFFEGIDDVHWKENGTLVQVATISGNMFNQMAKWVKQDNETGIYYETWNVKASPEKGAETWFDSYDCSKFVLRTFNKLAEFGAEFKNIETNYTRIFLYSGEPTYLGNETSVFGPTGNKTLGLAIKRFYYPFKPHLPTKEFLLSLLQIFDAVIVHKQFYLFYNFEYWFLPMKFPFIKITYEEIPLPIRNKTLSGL
UniProt Q8IYT2: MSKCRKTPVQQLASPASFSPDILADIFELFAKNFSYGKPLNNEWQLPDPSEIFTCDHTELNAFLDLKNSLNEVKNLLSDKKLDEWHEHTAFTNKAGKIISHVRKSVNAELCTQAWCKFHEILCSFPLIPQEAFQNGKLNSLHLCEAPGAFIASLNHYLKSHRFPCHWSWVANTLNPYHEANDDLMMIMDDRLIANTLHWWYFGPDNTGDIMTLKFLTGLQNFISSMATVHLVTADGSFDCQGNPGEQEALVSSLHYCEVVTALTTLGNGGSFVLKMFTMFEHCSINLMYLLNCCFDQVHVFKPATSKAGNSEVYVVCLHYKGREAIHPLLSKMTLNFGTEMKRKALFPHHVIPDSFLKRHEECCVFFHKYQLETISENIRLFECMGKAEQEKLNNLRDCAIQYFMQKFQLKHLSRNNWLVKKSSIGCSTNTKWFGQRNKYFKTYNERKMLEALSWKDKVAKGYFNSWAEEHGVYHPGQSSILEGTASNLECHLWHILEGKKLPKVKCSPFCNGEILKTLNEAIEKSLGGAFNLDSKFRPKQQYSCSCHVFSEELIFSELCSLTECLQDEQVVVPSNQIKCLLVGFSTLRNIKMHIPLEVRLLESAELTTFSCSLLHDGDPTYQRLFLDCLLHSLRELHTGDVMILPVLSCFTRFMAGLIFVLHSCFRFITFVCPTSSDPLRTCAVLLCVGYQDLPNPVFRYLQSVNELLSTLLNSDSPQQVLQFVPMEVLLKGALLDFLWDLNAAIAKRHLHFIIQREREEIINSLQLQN
UniProt P49759: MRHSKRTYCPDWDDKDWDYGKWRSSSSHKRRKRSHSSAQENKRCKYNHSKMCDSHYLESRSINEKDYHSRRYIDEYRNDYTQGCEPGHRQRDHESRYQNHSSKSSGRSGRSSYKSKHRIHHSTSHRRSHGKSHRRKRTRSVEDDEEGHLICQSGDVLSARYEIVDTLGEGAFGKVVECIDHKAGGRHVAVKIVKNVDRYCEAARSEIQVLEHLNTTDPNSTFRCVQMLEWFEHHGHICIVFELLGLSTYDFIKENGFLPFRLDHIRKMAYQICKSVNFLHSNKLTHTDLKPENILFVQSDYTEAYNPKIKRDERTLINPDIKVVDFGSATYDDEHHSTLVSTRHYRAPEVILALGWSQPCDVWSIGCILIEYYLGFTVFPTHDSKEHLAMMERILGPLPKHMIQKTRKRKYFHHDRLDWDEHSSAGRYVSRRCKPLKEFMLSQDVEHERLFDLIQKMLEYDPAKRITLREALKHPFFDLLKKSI
UniProt Q86X95: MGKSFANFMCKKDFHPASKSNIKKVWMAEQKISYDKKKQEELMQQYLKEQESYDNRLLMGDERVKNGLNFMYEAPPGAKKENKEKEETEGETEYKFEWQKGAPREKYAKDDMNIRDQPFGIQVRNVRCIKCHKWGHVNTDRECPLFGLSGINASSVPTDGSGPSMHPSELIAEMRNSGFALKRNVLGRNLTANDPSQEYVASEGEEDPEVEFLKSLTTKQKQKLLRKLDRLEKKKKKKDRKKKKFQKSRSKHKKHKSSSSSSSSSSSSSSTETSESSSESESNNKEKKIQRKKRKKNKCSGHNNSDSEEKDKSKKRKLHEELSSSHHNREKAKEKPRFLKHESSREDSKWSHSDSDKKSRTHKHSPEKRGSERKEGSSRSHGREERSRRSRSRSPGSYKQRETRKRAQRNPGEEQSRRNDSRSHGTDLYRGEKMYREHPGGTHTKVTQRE
UniProt Q9UBR5: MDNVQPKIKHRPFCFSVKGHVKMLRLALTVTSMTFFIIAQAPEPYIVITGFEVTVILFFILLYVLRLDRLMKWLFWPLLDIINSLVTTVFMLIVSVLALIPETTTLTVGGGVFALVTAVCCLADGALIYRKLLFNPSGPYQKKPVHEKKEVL
UniProt P51788: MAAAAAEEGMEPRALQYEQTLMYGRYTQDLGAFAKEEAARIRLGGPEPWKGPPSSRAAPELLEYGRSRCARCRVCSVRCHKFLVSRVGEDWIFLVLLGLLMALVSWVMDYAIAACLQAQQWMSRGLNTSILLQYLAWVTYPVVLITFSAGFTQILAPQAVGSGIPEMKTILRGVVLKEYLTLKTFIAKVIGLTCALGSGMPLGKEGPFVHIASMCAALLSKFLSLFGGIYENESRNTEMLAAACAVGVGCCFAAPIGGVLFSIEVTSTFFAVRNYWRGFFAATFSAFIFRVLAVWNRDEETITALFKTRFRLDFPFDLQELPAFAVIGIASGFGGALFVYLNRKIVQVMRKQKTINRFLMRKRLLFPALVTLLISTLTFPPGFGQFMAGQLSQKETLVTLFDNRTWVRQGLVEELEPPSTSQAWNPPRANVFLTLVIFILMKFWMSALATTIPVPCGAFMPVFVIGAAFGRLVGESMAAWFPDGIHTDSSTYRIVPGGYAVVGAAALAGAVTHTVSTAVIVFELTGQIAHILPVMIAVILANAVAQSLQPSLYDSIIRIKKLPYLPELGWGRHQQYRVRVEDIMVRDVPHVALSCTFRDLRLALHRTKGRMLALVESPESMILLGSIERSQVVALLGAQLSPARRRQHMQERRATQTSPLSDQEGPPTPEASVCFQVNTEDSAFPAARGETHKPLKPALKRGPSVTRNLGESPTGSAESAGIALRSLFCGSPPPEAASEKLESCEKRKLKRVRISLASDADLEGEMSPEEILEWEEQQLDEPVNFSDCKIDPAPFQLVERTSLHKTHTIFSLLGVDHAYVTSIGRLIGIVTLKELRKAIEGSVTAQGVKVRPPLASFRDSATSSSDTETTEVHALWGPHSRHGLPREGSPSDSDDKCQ
UniProt Q9Y3Y2: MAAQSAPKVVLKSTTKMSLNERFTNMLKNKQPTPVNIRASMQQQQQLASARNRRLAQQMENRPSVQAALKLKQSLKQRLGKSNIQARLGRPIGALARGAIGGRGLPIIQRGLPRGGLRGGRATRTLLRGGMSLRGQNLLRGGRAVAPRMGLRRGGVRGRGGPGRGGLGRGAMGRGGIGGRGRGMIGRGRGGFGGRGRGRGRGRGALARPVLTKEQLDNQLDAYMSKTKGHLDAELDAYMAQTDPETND
UniProt Q07065: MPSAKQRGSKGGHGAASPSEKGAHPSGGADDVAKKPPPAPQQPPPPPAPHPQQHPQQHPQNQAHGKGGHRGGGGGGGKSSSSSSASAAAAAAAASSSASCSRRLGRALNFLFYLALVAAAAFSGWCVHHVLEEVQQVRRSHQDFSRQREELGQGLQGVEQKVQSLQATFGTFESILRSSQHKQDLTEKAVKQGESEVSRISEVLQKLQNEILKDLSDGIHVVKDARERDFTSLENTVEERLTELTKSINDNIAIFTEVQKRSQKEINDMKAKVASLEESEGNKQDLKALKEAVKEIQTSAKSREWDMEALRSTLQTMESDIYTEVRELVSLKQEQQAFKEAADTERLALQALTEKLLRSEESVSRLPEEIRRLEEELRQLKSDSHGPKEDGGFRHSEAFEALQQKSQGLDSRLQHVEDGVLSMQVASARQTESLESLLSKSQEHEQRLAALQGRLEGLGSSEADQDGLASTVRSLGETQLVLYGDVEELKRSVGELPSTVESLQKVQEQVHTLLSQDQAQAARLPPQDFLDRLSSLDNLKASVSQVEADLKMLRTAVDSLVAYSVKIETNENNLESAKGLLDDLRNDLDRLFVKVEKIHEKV
UniProt Q9Y4C5: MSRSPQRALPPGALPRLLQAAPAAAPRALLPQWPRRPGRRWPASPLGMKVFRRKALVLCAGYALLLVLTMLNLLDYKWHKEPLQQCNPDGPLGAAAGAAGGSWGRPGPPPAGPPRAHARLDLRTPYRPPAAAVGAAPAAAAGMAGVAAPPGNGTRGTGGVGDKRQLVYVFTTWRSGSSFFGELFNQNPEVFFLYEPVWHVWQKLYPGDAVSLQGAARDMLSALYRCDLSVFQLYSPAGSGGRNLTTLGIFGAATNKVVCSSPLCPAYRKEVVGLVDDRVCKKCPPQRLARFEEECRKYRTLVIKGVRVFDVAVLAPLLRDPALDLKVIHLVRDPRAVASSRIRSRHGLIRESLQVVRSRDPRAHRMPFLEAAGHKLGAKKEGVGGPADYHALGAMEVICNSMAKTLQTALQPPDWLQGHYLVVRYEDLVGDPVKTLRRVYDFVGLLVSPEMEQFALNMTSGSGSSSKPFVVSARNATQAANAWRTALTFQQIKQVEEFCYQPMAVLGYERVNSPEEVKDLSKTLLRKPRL
UniProt Q96AJ1: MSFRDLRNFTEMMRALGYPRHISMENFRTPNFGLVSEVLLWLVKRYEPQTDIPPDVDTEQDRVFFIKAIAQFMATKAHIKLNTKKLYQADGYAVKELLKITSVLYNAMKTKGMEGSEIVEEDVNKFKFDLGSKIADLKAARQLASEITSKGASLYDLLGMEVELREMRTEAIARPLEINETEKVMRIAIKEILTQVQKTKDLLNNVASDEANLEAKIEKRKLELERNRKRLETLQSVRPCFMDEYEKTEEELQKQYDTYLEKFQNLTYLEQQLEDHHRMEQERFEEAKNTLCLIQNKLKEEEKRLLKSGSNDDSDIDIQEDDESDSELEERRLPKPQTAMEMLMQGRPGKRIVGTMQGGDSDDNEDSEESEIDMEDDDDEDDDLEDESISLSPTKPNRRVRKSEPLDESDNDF
UniProt Q8IZ52: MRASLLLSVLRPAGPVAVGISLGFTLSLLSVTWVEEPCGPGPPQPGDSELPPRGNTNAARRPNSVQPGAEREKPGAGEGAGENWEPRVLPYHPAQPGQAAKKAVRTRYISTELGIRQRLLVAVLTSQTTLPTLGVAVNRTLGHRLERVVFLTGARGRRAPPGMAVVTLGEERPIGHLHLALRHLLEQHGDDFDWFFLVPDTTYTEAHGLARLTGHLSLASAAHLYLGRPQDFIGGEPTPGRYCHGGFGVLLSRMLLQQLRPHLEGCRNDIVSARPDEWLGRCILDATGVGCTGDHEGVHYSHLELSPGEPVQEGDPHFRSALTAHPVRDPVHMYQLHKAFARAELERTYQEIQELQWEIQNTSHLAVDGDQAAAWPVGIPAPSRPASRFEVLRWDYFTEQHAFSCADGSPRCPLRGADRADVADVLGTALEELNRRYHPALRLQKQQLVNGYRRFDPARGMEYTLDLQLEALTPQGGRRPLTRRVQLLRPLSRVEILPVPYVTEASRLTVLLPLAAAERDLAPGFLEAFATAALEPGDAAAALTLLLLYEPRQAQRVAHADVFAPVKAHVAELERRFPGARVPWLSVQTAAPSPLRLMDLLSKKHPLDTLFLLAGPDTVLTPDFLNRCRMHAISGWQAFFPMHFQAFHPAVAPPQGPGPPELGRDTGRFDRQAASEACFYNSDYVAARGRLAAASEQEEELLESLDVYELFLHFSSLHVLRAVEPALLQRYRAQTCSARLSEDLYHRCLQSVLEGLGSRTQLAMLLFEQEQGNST
UniProt Q9P2E5: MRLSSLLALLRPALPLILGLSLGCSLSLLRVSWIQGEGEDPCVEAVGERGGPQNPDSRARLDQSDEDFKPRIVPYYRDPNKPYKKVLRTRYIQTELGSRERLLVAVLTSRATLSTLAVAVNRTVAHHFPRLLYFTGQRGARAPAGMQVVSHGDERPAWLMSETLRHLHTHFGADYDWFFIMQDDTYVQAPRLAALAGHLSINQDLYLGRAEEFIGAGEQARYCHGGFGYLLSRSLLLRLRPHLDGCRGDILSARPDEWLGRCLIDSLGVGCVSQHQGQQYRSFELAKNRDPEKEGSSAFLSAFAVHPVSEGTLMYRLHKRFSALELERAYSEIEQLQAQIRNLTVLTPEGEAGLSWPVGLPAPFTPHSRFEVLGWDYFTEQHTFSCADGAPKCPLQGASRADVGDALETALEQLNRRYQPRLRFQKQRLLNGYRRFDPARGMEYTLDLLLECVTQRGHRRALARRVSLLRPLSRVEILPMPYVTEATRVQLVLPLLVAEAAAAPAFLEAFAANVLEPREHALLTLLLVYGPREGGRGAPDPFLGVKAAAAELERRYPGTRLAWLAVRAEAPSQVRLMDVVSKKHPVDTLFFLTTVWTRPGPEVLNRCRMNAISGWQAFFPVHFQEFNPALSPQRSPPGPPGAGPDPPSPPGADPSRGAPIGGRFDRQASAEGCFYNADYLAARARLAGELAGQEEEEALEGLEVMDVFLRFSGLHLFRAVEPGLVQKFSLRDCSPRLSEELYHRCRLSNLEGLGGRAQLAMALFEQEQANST

What follows are targets tested with Cc1cn(-c2cc(NC(=O)c3ccc(C)c(Nc4nccc(-c5cccnc5)n4)c3)cc(C(F)(F)F)c2)cn1 [nilotinib] (assay: log2 fold change, soluble protein after heating vs DMSO (PISA); higher = thermal stabilisation; K562 lysate, 10 uM; active = over 0.2 and 3.5 SD of the protein, either way, in both replicates (recomputed)).
Outline: (§1)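 The values are log-two fold changes in thermal stability compared with solvent controls and come from duplicates. They were obtained by TMTpro 16plex LC-MS/MS, with channel sums equalised, on the supernatant after 21,000xg for 90 min. That supernatant came from crude K562 extract at 1 mg/mL protein treated with 10 μM compound for 30 min, heated for 3 min across 48°C-58°C, pooled and brought to 0.5% NP-40 at 4°C.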

log2 fold change, inactive:
CMC4 (UniProt P56277) 0.168
CLUL1 (UniProt Q15846) -0.01
CLASP1 isoform 4 (UniProt Q7Z460) -0.113
CKS2 (UniProt P33552) -0.138
CLN5 (UniProt O75503) -0.097
CMTR2 (UniProt Q8IYT2) 0.017
CLK1 isoform 3 (UniProt P49759) 0.1

These targets were tested with Cc1nc(Nc2n[nH]c3c2CN(C(=O)N[C@H](CN(C)C)c2ccccc2)C3(C)C)c2sccc2n1 in the same assay as above.
Outline: as §1

log2 fold change, inactive:
CMC4 (UniProt P56277) 0.001
CLUL1 (UniProt Q15846) 0.002
CLASP1 isoform 4 (UniProt Q7Z460) 0.126
CKS2 (UniProt P33552) 0.067
CLN5 (UniProt O75503) 0.117
CMTR2 (UniProt Q8IYT2) 0.313
CLK1 isoform 3 (UniProt P49759) -0.057

Each target was assayed with Cc1nc(Nc2ncc(C(=O)Nc3c(C)cccc3Cl)s2)cc(N2CCN(CCO)CC2)n1 [dasatinib] in the same assay as above.
Outline: as §1

log2 fold change, inactive:
CLIC6 (UniProt Q96NY7) 0.039
CIR1 (UniProt Q86X95) -0.171
CHMP4A (UniProt H0YIN6) 0.294
CLINT1 (UniProt Q14677) 0.005
CLIP2 (UniProt Q9UDT6) -0.018
CLCN6 isoform 5 (UniProt P51797) -0.073
CKLF (UniProt Q9UBR5) -0.265
CLCN2 (UniProt P51788) -0.003
CHTOP isoform 3 (UniProt Q9Y3Y2) -0.07
CKAP4 (UniProt Q07065) 0.118
CLK3 (UniProt P49761) 0.064
CHCHD6 (UniProt Q9BRQ6) -0.008
CHST2 (UniProt Q9Y4C5) 0.25
CLK2 (UniProt P49760) -0.022
CITED2 (UniProt Q99967) -0.061
CLUAP1 (UniProt Q96AJ1) 0.015
CHPF (UniProt Q8IZ52) 0.097
CHPF2 (UniProt Q9P2E5) -0.179

Retrieved one by one from above:
log2 fold change, inactive:
CITED2 (UniProt Q99967) -0.061
CLK2 (UniProt P49760) -0.022
